Positions of bridges follow the written chain, without caps; N, C: chain ends. Residues, ends and D or L forms follow the SMILES beside them. *: point of attachment. Biotin = O=C1N[C@H]2[C@H](CS[C@H]2CCCCC(=O)*)N1

This data set can be described thus: Phage ELISA, background signal on non-fat milk (NFM). The note with it: 405 nm. A general note: In an ELISA, binding on a coated surface is turned into a signal by an enzyme label.
`CC(C)C[C@H](NC(=O)[C@H](Cc1c[nH]c2ccccc12)NC(=O)[C@@H](N)CCCCN)C(=O)N[C@@H](CC(=O)O)C(=O)N[C@@H](CCC(N)=O)C(=O)N[C@@H](CCC(=O)O)C(=O)N[C@@H](Cc1c[nH]c2ccccc12)C(=O)N[C@@H](C)C(=O)N[C@@H](Cc1c[nH]c2ccccc12)C(=O)N[C@H](C(=O)N[C@@H](CCC(N)=O)C(=O)N[C@H]1CSSC[C@@H](C(=O)N2CCC[C@H]2C(=O)N[C@@H](CO)C(=O)N[C@@H](CCCCN)C(=O)N[C@@H](CCCCNC(=O)CCCC[C@@H]2SC[C@@H]3NC(=O)N[C@@H]32)C(N)=O)NC(=O)CNC(=O)[C@H](CCCNC(=N)N)NC(=O)CNC(=O)[C@H](Cc2ccc(O)cc2)NC(=O)[C@H](C(C)C)NC(=O)[C@H](CCC(=O)O)NC1=O)C(C)C` [Clone D8] (H-KWLDQEWAWVQCEVYGRGCPSKK(Biotin)-NH2; disulfide 12-19 (inferred); N-terminus assumed): the “Absorbance Values NFM” value is reported as 0.09. With KSMFVAGSDRWPGYGVLADWLKK [Clone F2] the figure was 0.09; with `CC[C@H](C)[C@H](NC(=O)[C@H](C)NC(=O)[C@H](CC(=O)O)NC(=O)[C@H](Cc1ccc(O)cc1)NC(=O)[C@H](Cc1ccccc1)NC(=O)[C@H](CC(=O)O)NC(=O)[C@H](CCCCN)NC(=O)[C@H](Cc1ccc(O)cc1)NC(=O)[C@@H](N)CC(=O)O)C(=O)N[C@@H](CC(=O)O)C(=O)N[C@@H](CCC(N)=O)C(=O)N[C@@H](CC(C)C)C(=O)N[C@H](C(=O)N[C@@H](CCCNC(=N)N)C(=O)NCC(=O)N[C@@H](CO)C(=O)N[C@@H](C)C(=O)N[C@@H](CCCNC(=N)N)C(=O)N[C@@H](C)C(=O)NCC(=O)NCC(=O)N[C@H](C(=O)N[C@@H](CCCNC(=N)N)C(=O)N[C@@H](CC(=O)O)C(=O)N[C@@H](CCCCN)C(=O)N[C@@H](CCCCNC(=O)CCCC[C@@H]1SC[C@@H]2NC(=O)N[C@@H]21)C(N)=O)[C@@H](C)O)C(C)C` [Clone 20E2] (H-DYKDFYDAIDQLVRGSARAGGTRDKK(Biotin)-NH2; N-terminus assumed), 0.11.

Turning to `CC[C@H](C)[C@H](NC(=O)[C@H](CCC(=O)O)NC(=O)[C@@H](N)CCCCN)C(=O)N[C@@H](CCC(=O)O)C(=O)N[C@@H](C)C(=O)N[C@@H](CCC(=O)O)C(=O)N[C@@H](Cc1c[nH]c2ccccc12)C(=O)NCC(=O)N[C@@H](CCCNC(=N)N)C(=O)N[C@H](C(=O)N[C@@H](CCCNC(=N)N)C(=O)N[C@H]1CSSC[C@@H](C(=O)N[C@H](C(=O)NCC(=O)NCC(=O)N[C@@H](CCCCN)C(=O)N[C@@H](CCCCNC(=O)CCCC[C@@H]2SC[C@@H]3NC(=O)N[C@@H]32)C(N)=O)C(C)C)NC(=O)[C@H](CCCNC(=N)N)NC(=O)CNC(=O)[C@H](Cc2ccc(O)cc2)NC(=O)[C@H](C(C)C)NC(=O)[C@H](CC(C)C)NC1=O)C(C)C` [Clone 20A4] (H-KEIEAEWGRVRCLVYGRCVGGKK(Biotin)-NH2; disulfide 12-18 (inferred); N-terminus assumed), the “Absorbance Values NFM” value was 0.15. The result for `CSCC[C@H](NC(=O)[C@@H](NC(=O)[C@H](CO)NC(=O)[C@H](CC(C)C)NC(=O)[C@H](CC(C)C)NC(=O)[C@H](C)NC(=O)[C@H](CO)NC(=O)[C@H](Cc1c[nH]c2ccccc12)NC(=O)[C@@H](N)CCCCN)C(C)C)C(=O)N[C@@H](CC(=O)O)C(=O)N[C@H](C(=O)NCC(=O)N[C@@H](Cc1ccccc1)C(=O)N[C@@H](Cc1ccc(O)cc1)C(=O)N[C@@H](C)C(=O)N[C@@H](Cc1c[nH]c2ccccc12)C(=O)N[C@@H](Cc1ccccc1)C(=O)N[C@@H](CC(=O)O)C(=O)N[C@@H](CC(=O)O)C(=O)N[C@@H](C)C(=O)N[C@H](C(=O)N[C@@H](CCCCN)C(=O)N[C@@H](CCCCNC(=O)CCCC[C@@H]1SC[C@@H]2NC(=O)N[C@@H]21)C(N)=O)C(C)C)[C@@H](C)O` [Clone B8] (H-KWSALLSVMDTGFYAWFDDAVKK(Biotin)-NH2; N-terminus assumed) reads 0.10.

The record behind these values is EP1383793B1 (priority 2000, dated 2001).
